From PubChem BioAssay AID1671190 (National Center for Advancing Translational Sciences (NCATS), 2021)
“And” between values parts separate entries of the source, which are not always exact repeats. Equal entries are not always repeated. Screen size: about 580,000 compounds; about 6,100 (1.1%) were called active. This list was built around the results that the source calls inconclusive (neither active nor inactive); the mix of calls is not that of the screen. Calls come from the whole dose curve; as a rule, active = well fitted inhibition curve with a large enough effect; inconclusive = small, poorly fitted or top-dose-only effect, or another doubt; inactive = no such curve, though single readings can be large or run the other way. Potencies beside an inconclusive call are fits to weak or partial responses and may not hold up.

Sequences of proteins named here, by UniProt entry; tags and fusion partners are left off. A change or cut given only in a name is not applied to a line headed by its entry.
UniProt P18054: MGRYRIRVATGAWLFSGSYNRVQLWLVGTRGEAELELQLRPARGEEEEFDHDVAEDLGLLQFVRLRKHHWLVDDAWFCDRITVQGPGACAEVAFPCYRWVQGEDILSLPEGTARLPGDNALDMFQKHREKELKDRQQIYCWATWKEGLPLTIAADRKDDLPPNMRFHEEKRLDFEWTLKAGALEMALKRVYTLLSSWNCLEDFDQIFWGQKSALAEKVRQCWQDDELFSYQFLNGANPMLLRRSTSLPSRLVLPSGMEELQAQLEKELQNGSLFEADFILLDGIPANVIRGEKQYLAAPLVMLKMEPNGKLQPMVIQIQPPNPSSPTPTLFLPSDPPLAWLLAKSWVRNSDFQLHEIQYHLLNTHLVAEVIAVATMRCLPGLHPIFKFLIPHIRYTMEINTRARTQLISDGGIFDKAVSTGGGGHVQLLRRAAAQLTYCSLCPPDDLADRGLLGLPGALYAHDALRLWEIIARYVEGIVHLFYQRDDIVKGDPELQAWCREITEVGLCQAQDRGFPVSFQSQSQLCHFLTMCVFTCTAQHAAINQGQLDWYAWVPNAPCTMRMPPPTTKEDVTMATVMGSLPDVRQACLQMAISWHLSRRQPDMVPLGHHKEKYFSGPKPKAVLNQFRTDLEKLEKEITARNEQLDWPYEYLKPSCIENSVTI

Biological target: Polyunsaturated fatty acid lipoxygenase ALOX12 (Homo sapiens) (UniProt P18054)
Experiment: Primary qHTS assay for inhibitors of human arachidonate 12S-lipoxygenase (ALOX12): Round 2
Details: purified 12hLO, xylenol orange hydroperoxide absorbance; activity change, negative = inhibition: at 108 µM (top of the series) unless noted
Outline: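 Purified human 12hLO (150 nM final) in 25 mM Hepes, 0.01% Triton X-100, pH 7.0 was preincubated 15 min at room temperature with compound. Then 40 uM arachidonic acid was added, 30 min. Hydroperoxide was read by Fe-XO absorbance ratio 573/405 nm.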
% is set by controls: 0 for no effect and ±100 for the full control effect; potency is the fitted concentration of half-maximal effect.

SMILES | activity change, negative = inhibition | Potency
COC(=O)c1ccccc1NC1c2ccccc2C(=O)N1Cc1ccccc1Cl (stereo not given) | inactive: -2.83% | 
COc1ccc(C(=O)N2CCN(S(=O)(=O)c3ccc(F)cc3)C[C@@H]2C(=O)N[C@H]2CCCNC2=O)cc1 | inactive: -39.1% | 
COc1cccc(-c2cnc3c(NC=O)cc(-c4ccc(O)c(OC)c4)cn23)c1 |  | inconclusive: 100 µM [inhibitor, single point]
N#C/C(=C\c1ccc(-c2cccc(C(=O)O)c2)o1)c1nc2ccccc2[nH]1 |  | inconclusive: 31.6 µM [inhibitor, partial curve, poor fit]
O=C(/C=C/c1ccccc1)Nc1ccc2c(c1)CCC2 | inactive: -5.98% | 
COc1ccc(OC)c(S(=O)(=O)N2CCN(C(=O)NC3CC3)CC2)c1 | inactive: -5.04% | 
O=C1OCCC1Sc1ccc2c(c1)OCCO2 (stereo not given) | inactive: 6.61% | 
Cc1cc(Cl)c(OCCCNC2CCCC2)c(Br)c1 |  | inconclusive: 0.794 µM [inhibitor, full curve, poor fit]
CNC(=O)c1ccc(CNC(=O)c2nccnc2N)cc1 | inactive: 24.4% | 
COc1ccc(CN2CCN(C(=O)c3cc4c(s3)CCC4)CC2)cc1 |  | inconclusive: 39.8 µM [inhibitor, partial curve, poor fit]
O=C(Nc1c(NCC2CCCCC2)c2ccccc2oc1=O)c1cccs1 | inactive: -5.94% | 
COc1cc(-c2nc3ccccn3c2/N=C/c2cc(OC)c(O)cc2Cl)ccc1O |  | inconclusive: 3.16 µM [inhibitor, full curve, poor fit]
Oc1ccc(-c2csc(-c3ccccc3)n2)cc1O |  | active: 7.08 µM
O=C(CSc1cn(CC(=O)N2CCCC2)c2ccccc12)Nc1ccc(C(F)(F)F)cc1 |  | inconclusive: 39.8 µM [inhibitor, partial curve, poor fit]
N#Cc1c(-c2ccc(Cl)cc2Cl)csc1N |  | active: 20 µM
N#Cc1nc(Cc2ccccc2)oc1NCc1ccc(F)cc1 |  | inconclusive: 3.55 µM [inhibitor, full curve, poor fit]
CC(C)c1ccc(CNc2nc(-c3ccco3)nn2S(=O)(=O)c2ccccc2)cc1 |  | inconclusive: 44.7 µM [inhibitor, partial curve, poor fit] and inconclusive: 56.2 µM [inhibitor, partial curve, poor fit]
Cc1cc(C)nc(NS(=O)(=O)c2ccc(NC(=O)CSc3ncn[nH]3)cc2)n1 | inactive: -28.2% | 
O=C(CCn1c(SCC(=O)c2ccccc2)nc2ccccc2c1=O)NCc1ccc(F)cc1 |  | inconclusive: 79.4 µM [inhibitor, partial curve, poor fit]
Fc1ccc(NC(=S)NCCc2c[nH]c3ccccc23)cc1 | inactive: -27.1% | 
Cc1ccc2nc(CSc3nnc4ccccn34)cc(=O)n2c1 |  | inconclusive: 44.7 µM [inhibitor, partial curve, poor fit]
Cc1cc(Br)ccc1NC(=O)CC1CC2CCC1C2 (stereo not given) | inactive: 25.3% | 
Brc1ccccc1OCCCCCN1CCOCC1 |  | inconclusive: 0.794 µM [inhibitor, full curve, poor fit]

SMILES | activity change, negative = inhibition | Potency
COc1ccc([N+](=O)[O-])c2c1CCN2C(=O)CC[C@H](N)C(=O)O |  | inconclusive: 1.41 µM [inhibitor, full curve, poor fit]
Cc1cccc(NC(=O)COC(=O)c2cc(C)nc3ccccc23)c1 |  | inconclusive: 31.6 µM [inhibitor, single point]
CCC1CN(C(=O)c2cnn(-c3ccccc3F)c2C(F)(F)F)CCO1 (stereo not given) | inactive: -36.4% | 
COc1ccccc1Nc1ncc2c(n1)CN(C(=O)Cc1ccc3c(c1)OCO3)CCN2 |  | inconclusive: 20 µM [inhibitor, full curve, poor fit]
CCN1C(=O)[C@H]2[C@@H](c3ccc(OC)cc3)N[C@]3(CCCN(Cc4cccn4C)C3=O)[C@H]2C1=O |  | inconclusive: 3.98 µM [inhibitor, full curve, poor fit]
Brc1ccc(C2=Nc3cccc4cccc(c34)N2)o1 |  | inconclusive: 44.7 µM [inhibitor, partial curve, poor fit]
CC(=O)N1CCC(CC(=O)N2CCCC(c3[nH]ccc3C(N)=O)C2)CC1 (stereo not given) | inactive: 4.79% | 
N#C/C(=C\c1ccc(O)c(O)c1)C(=O)Nc1ccccc1 |  | active: 316 nM and active: 50.1 µM
N#CC(=Cc1ccccn1)c1nc(-c2ccc(Cl)cc2)cs1 |  | inconclusive: 3.16 µM [inhibitor, full curve, poor fit]
Cc1ccc(-n2ncc3c(=O)[nH]c(SCC(=O)N4CCCc5ccccc54)nc32)cc1 | inactive: 29.3% | 
Nn1cnn(Cc2ccccc2)c1=S | inactive: -28.9% | 
C/C(=N\NC(=S)NC(C)C)c1ccc(C(C)(C)C)cc1 |  | inconclusive: 44.7 µM [inhibitor, partial curve, poor fit]
CCN1CCC(O)(/C=C/c2ccc(C(C)C)cc2)C(C(=O)/C=C/c2ccc(C(C)C)cc2)C1 (stereo not given) |  | active: 1.78 µM
CCCCS(=O)CCC(=O)O (stereo not given) |  | inconclusive: 1 µM [inhibitor, full curve, poor fit]
Cc1cccc(-n2c(SCC(=O)N(C)CCC#N)nc3ccccc3c2=O)n1 |  | inconclusive: 44.7 µM [inhibitor, single point]
Cc1cc(C)cc(N(C(=O)C23CC4CC(CC(C4)C2)C3)C2C=CS(=O)(=O)C2)c1 (stereo not given) | inactive: -26.1% | 
CN(C(=O)Cc1ccc(S(C)(=O)=O)cc1)C1CCc2nn(C)c(=O)n2CC1 (stereo not given) |  | inconclusive: 4.47 µM [inhibitor, full curve, poor fit]
COc1ccc2[nH]cc(CCNC(=S)NC3CCCC3)c2c1 |  | inconclusive: 63.1 µM [inhibitor, partial curve, poor fit]
COC(=O)c1ccc(COc2ccccc2/C=N/Nc2cccc(C(=O)O)c2)cc1 |  | inconclusive: 89.1 µM [inhibitor, single point]
CC(C)n1cc(C(=O)N2CCCC(c3nnc(Cn4ccnc4)n3C)C2)cn1 (stereo not given) | inactive: 20% | 
CC(C)CNc1cccc2c1S(=O)(=O)N[C@H](CC(C)C)CO2 |  | inconclusive: 31.6 µM [inhibitor, partial curve]
Cc1cc(-c2csc(Nc3ccc(O)cc3)n2)ccc1F |  | active: 35.5 µM

A few values from the list.
activity change, negative = inhibition with Cc1ccc(-n2ncc3c(=O)[nH]c(SCC(=O)N4CCCc5ccccc54)nc32)cc1 is entered as inactive: 29.3%
Potency with N#C/C(=C\c1ccc(O)c(O)c1)C(=O)Nc1ccccc1 is entered as active: 316 nM and active: 50.1 µM
